Publication PMC8526623
These are yes or no findings as the source states them, for the method shown. In cells and extracts the contact can be indirect. A yes stands for co-enrichment or nearness to the bait. Other partners may have been found.

Amino acid sequences for entries named in this document (tags omitted).
UniProt Q92576: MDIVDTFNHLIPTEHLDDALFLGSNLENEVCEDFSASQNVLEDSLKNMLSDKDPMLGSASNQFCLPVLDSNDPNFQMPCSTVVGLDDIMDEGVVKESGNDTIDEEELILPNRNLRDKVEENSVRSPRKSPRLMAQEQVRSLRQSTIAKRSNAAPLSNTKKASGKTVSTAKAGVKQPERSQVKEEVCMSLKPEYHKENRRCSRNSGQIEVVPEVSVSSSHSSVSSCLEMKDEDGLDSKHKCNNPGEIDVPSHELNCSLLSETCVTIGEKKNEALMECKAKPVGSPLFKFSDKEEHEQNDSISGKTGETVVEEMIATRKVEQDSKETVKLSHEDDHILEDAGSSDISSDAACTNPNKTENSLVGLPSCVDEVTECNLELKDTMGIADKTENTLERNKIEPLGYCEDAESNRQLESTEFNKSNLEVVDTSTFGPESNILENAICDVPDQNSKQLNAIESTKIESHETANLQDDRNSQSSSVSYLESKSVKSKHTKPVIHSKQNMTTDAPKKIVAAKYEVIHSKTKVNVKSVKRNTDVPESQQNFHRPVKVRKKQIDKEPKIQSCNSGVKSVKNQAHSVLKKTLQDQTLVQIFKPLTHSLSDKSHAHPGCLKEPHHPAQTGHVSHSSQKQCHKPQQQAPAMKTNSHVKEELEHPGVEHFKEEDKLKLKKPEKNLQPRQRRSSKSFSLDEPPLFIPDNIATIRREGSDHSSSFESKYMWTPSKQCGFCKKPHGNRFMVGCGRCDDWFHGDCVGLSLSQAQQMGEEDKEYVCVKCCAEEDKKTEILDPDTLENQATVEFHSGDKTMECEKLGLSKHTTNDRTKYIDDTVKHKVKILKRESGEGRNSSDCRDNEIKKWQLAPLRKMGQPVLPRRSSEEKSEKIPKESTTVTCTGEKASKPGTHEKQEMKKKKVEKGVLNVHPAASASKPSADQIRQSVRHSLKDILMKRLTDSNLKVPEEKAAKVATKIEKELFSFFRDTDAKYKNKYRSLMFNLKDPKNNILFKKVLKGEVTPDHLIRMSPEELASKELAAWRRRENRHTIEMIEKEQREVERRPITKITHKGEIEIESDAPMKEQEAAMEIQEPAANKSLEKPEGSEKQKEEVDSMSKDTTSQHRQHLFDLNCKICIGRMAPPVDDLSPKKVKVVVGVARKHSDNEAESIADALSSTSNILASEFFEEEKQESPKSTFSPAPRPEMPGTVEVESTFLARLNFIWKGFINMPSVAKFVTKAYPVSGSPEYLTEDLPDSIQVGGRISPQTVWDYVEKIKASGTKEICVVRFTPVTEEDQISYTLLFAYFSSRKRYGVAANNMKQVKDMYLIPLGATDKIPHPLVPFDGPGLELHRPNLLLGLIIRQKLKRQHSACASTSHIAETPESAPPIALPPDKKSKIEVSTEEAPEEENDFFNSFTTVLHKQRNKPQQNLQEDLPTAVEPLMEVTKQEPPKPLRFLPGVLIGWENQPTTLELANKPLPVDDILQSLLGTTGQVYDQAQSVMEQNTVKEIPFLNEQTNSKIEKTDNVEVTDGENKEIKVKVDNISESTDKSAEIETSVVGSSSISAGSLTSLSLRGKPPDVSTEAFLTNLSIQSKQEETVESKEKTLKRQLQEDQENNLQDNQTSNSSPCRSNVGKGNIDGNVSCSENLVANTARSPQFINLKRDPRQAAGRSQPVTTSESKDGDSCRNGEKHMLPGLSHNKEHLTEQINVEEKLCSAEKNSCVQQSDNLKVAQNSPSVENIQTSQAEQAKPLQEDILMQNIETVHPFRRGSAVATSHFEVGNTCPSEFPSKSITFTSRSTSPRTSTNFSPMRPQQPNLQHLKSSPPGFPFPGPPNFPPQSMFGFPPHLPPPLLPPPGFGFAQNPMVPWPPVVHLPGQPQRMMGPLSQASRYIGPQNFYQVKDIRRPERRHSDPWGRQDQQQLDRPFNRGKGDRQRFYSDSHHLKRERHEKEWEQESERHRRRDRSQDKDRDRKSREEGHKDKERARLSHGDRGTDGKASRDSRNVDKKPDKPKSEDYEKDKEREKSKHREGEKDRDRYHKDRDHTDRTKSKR
UniProt P38159: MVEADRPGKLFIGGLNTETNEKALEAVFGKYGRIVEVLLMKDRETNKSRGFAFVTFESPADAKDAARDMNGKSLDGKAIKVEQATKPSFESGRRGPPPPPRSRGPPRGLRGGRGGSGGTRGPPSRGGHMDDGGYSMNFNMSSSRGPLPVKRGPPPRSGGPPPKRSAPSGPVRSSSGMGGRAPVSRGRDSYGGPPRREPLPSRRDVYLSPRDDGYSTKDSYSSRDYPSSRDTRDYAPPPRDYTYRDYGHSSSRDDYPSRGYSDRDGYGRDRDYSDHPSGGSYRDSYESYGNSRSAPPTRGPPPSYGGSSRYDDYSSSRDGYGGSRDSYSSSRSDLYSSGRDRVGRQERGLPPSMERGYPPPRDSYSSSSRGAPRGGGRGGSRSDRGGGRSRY
UniProt P18583: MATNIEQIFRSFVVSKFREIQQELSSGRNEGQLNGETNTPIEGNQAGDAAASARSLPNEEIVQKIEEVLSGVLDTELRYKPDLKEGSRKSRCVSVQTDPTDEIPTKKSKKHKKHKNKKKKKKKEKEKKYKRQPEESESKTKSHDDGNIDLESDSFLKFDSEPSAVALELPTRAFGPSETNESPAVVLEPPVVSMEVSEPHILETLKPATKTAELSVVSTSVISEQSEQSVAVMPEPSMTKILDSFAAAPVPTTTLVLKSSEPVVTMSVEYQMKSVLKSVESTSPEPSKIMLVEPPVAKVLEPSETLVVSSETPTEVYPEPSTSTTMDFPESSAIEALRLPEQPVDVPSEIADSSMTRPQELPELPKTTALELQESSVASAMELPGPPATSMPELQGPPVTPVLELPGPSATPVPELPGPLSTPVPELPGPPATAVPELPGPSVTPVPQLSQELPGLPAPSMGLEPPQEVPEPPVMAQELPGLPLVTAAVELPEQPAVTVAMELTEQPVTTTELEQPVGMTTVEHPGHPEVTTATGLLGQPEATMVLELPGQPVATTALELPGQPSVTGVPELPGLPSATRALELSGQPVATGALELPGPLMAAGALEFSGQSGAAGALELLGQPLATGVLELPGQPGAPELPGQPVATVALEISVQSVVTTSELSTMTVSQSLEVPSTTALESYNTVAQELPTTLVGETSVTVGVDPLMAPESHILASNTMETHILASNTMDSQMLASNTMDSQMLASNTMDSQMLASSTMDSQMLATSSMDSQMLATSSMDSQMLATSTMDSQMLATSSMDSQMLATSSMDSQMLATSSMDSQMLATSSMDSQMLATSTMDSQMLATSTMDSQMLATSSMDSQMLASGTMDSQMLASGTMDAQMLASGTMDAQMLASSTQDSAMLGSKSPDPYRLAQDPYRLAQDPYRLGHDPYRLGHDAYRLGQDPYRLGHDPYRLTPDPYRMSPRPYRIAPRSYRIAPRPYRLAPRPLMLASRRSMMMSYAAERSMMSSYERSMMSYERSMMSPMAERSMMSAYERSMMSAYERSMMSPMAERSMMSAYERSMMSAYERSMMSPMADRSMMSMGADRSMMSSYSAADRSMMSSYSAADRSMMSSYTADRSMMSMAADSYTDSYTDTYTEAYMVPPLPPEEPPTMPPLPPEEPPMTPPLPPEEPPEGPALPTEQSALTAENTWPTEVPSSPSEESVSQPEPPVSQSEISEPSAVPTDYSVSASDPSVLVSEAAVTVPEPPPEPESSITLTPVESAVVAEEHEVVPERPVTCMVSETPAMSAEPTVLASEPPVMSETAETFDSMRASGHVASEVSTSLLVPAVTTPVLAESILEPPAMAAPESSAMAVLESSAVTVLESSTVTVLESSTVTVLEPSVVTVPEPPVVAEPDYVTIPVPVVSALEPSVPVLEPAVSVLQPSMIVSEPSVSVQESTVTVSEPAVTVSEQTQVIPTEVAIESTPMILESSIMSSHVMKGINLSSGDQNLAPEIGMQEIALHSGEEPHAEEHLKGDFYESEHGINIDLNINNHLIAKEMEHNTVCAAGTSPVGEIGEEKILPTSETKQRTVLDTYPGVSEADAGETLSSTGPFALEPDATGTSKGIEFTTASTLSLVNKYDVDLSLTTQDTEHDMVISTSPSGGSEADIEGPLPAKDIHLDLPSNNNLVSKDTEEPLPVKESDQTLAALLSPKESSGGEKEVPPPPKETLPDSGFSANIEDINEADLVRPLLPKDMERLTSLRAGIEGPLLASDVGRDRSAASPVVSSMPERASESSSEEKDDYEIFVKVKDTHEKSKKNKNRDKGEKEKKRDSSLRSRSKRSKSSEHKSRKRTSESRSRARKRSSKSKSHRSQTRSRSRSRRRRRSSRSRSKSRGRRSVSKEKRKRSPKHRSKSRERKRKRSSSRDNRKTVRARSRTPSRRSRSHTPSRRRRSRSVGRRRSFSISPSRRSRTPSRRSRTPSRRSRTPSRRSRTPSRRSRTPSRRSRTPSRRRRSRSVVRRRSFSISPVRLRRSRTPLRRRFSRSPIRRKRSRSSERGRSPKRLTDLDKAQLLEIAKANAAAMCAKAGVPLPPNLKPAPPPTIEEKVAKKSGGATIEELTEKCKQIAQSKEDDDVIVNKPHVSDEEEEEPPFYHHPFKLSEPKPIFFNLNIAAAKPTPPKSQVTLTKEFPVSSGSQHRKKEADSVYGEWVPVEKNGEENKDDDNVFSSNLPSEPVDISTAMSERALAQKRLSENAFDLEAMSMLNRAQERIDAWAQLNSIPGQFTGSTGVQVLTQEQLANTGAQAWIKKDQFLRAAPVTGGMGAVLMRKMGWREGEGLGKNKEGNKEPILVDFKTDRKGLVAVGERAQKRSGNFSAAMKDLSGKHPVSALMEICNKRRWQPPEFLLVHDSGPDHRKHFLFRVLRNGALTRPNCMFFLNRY

Target: FLAG-PHF3 (PHD-finger protein 3) (human) (UniProt Q92576)
Assay: affinity purification with mass spectrometry; FLAG-PHF3 expressed in HEK293T; anti-FLAG M2 magnetic beads, lysate with benzonase; empty vector as control; SAINT-MS1

Row | binding | Substance
1 | binds | RBMX (from UniProt P38159 1-391)
2 | binds | SON (from UniProt P18583 1-2426)
